Measurements taken from patent US11155580B2, “Modified proteins and methods of use thereof” (YALE UNIVERSITY, priority 2013, dated 2021).

Tested on: HeLa cells transfected with the indicated GFP fusion protein
Assay: Colocalization with Rab-GFP fusions and galT-GFP, confocal microscopy
Type: cell-based

K^RhodWYSCNVCGKAFVLSRHLNRHLRVHRRAT-NH2 (KWYSCNVCGKAFVLSRHLNRHLRVHRRAT; N-terminal rhodamine-labeled Lys; C-terminal amide; (1)..(1) rhodamine) [ZF5.3R]
rhodamine signal overlapping with GFP-Rab5 (1 μM, 30 min, HeLa cells): 68%

CC[C@H](C)[C@H](NC(=O)[C@H](CC(C)C)NC(=O)[C@H](CC(=O)O)NC(=O)[C@H](CCCNC(=N)N)NC(=O)[C@@H](NC(=O)[C@@H]1CCCN1C(=O)[C@H](C)NC(=O)[C@H](CC(=O)O)NC(=O)[C@H](CC(=O)O)NC(=O)CNC(=O)[C@@H]1CCCN1C(=O)[C@H](Cc1ccc(O)cc1)NC(=O)[C@@H](NC(=O)[C@@H]1CCCN1C(=O)[C@H](CCC(N)=O)NC(=O)[C@H](CO)NC(=O)[C@@H]1CCCN1C(=O)CNC(=O)[C@@H](N)CCCCNS(=O)(=O)c1ccc(-c2c3ccc(=[N+](CC)CC)cc-3oc3cc(N(CC)CC)ccc23)c(S(=O)(=O)[O-])c1)[C@@H](C)O)C(C)C)C(=O)N[C@@H](CCCNC(=N)N)C(=O)N[C@@H](Cc1ccccc1)C(=O)N[C@@H](Cc1ccc(O)cc1)C(=O)N[C@@H](CCCNC(=N)N)C(=O)N[C@@H](CC(=O)O)C(=O)N[C@@H](CC(C)C)C(=O)N[C@@H](CCCNC(=N)N)C(=O)N[C@@H](CCCNC(=N)N)C(=O)N[C@@H](Cc1ccc(O)cc1)C(=O)N[C@@H](CC(C)C)C(=O)N[C@@H](CC(N)=O)C(=O)N[C@H](C(=O)N[C@H](C(=O)N[C@H](C(=O)N[C@@H](CCCNC(=N)N)C(=O)N[C@@H](Cc1c[nH]cn1)C(=O)N[C@@H](CCCNC(=N)N)C(=O)N[C@@H](Cc1ccc(O)cc1)C(N)=O)[C@@H](C)O)C(C)C)C(C)C [5.3R] (H-K(X1)GPSQPTYPGDDAPVRDLIRFYRDLRRYLNVVTRHRY-NH2)
rhodamine signal located in the Rab7-GFP compartment (1 μM, 30 min, HeLa cells): 87% | rhodamine signal overlapping with GFP-Rab5 (1 μM, 30 min, HeLa cells): 66% | miniature protein localized to enlarged GFP+ endosomes (HeLa cells transfected with Rab5Q79L-GFP): 99%

Where a SMILES comes first, the peptide text is derived from it. The star is where a group is joined. X1 = CCN(CC)c1ccc2c(-c3ccc(S(=O)(=O)*)cc3S(=O)(=O)[O-])c3ccc(=[N+](CC)CC)cc-3oc2c1
